This is an account of results in PubChem BioAssay AID266 (DTP/NCI, 2004).

Structures are written as SMILES. The list is a part of this screen's results and no random one: it is rich in T/C values a quarter to a half above the control, in often repeated tests (any T/C) and in doses without a T/C. Further doses and runs are listed elsewhere. T/C gives the treated animals as a percentage of the vehicle group. Schedule codes are those of the source, read here as Q, the interval in days (D) or hours (H), X, the number of doses. Some T/C values are followed by the survivors on the day toxicity was checked, most often the fifth; without a count, all were alive then. Some doses have a count of surviving animals in place of a T/C: the source holds a T/C of zero for them, seemingly a mark for toxic or unscored doses. Survivors were counted at the toxicity check, usually on the fifth day, unless a day is given; later deaths do not show. Some entries hold several experiments; the values are given in rising order.

For the assay, the system named is Nude mice, LX-1 lung xenograft intrarenal, tumor weight T/C. The assay can be described thus: NCI In Vivo Anticancer Drug Screen. Data for tumor model Human Lung LX-1 Xenograft (intrarenal inoculation) in NU/NU BALB/C (nude) mice. As to conditions: T/C endpoint: mean tumor weight change, higher T/C = larger tumour; for T/C: evaluated on day 11. As for the experimental part:
The antitumor activity of compounds was measured in mice bearing transplantable tumors. Survival or tumor size were measured and the results are expressed as the measurement made in the treated group (T) divided by the measurement made in the vehicle treated control group (C). The tumor model used in this assay is Human Lung LX-1 Xenograft (intrarenal inoculation) in NU/NU BALB/C (nude) mice

Setting [1] is: dose: 300.0 mg/kg/injection, schedule: Q04DX003 (sc), vehicle: saline with Tween-80.
[2] abbreviates: dose: 600.0 mg/kg/injection, schedule: Q04DX003 (sc), vehicle: saline with Tween-80.
Setting [3] is: dose: 1200.0 mg/kg/injection, schedule: Q04DX003 (sc), vehicle: saline with Tween-80.
The mark [4] stands for this setting: dose: 100.0 mg/kg/injection, schedule: Q01DX010 (sc), vehicle: saline with Tween-80.

As to `CC[C@@]1(O)C[C@H](OC2CC(N(C)C)C(OC3CC(O)C(OC4CCC(=O)C(C)O4)C(C)O3)C(C)O2)c2c(cc3c(c2O)C(=O)c2c(O)cccc2C3=O)[C@H]1C(=O)OC` (stereo partly drawn), the T/C (dose: 0.5 mg/kg/injection, schedule: Q01DX010 (sc), vehicle: water) is 147 % of control. Moreover, the survivor count is 0 of 3 on day 11 (dose: 4.0 mg/kg/injection, schedule: Q01DX010 (sc), vehicle: water) and 0 of 3 on day 11 (dose: 13.3 mg/kg/injection, schedule: Q04DX003 (sc), vehicle: water).
With `CC(=O)CC(=O)CCC(=O)O`, the T/C is, setting by setting: under setting [1], 133 % of control; under setting [2], 127 % of control; under setting [3], 149 % of control. The survivor count (dose: 2400.0 mg/kg/injection, schedule: Q04DX003 (sc), vehicle: saline with Tween-80) is reported as 0 of 6 on day 11.
As to `CN(C)N=Nc1ccc(C(=O)O)cc1`, the survivor count (dose: 800.0 mg/kg/injection, schedule: Q04DX003 (ip), vehicle: saline) is reported as 0 of 6 on day 11.
With `CCCCNc1ccc2nnc(C)n2n1`, the survivor count runs as follows: (dose: 300.0 mg/kg/injection, schedule: Q04DX003 (ip), vehicle: DMSO) 3 of 6 on day 11; (dose: 600.0 mg/kg/injection, schedule: Q04DX003 (ip), vehicle: DMSO) 0 of 6 on day 11 and 1 of 6 on day 11; (dose: 1200.0 mg/kg/injection, schedule: Q04DX003 (ip), vehicle: DMSO) 0 of 6 on day 11.
With `CC1=C(/C=C/C(C)=C/C=C/C(C)=C/C(=O)O)C(C)(C)CCC1`, the survivor count is, setting by setting: under setting [4], 1 of 3 on day 11; (dose: 200.0 mg/kg/injection, schedule: Q01DX010 (sc), vehicle: saline with Tween-80) 0 of 3 on day 11; (dose: 400.0 mg/kg/injection, schedule: Q01DX010 (sc), vehicle: saline with Tween-80) 0 of 3 on day 11.
`NC(CNC(=O)CBr)C(=O)O` (stereo not drawn): the T/C (dose: 37.5 mg/kg/injection, schedule: Q04DX003 (sc), vehicle: water) is 133 % of control [5 of 6 alive on day 11]. In addition, for the setting “dose: 300.0 mg/kg/injection, schedule: Q04DX003 (sc), vehicle: water”, the survivor count is recorded as 0 of 6 on day 11.
On to `O=S(=O)(N=N/C=C1\C=CC=CN1O)c1cccs1`, for which, under setting [1], the survivor count was 3 of 5 on day 11.
In the case of `CC1(C)CC2(C)OC2C2(C1)N=NC(=Nc1ccccc1)O2` (stereo not drawn), under “dose: 150.0 mg/kg/injection, schedule: Q04DX003 (sc), vehicle: saline with Tween-80”, the T/C is 126 % of control.
Turning to `CCC(C(=O)O)C(=O)O.[NH-]CC1CCCC[N-]1.[Pt+2]`, where the note is “dose: 800.0 mg/kg/injection, schedule: Q04DX003 (sc), vehicle: saline”, the survivor count was 3 of 6 on day 11.
With `CC(=O)N(C)O`, the survivor count under setting [1] is 1 of 6 on day 11, the survivor count under setting [2] was 1 of 6 on day 11 and the survivor count under setting [3] is 0 of 6 on day 11.
With `CC[C@@]1(O)C(=O)OCc2c1cc1n(c2=O)Cc2cc3ccccc3nc2-1`, the survivor count (dose: 80.0 mg/kg/injection, schedule: Q04DX003 (sc), vehicle: saline with Tween-80) was 1 of 6 on day 11.
With `CN=NN(C)C(=O)NC`, the survivor count is 0 of 6 on day 11 (dose: 300.0 mg/kg/injection, schedule: Q04DX003 (ip), vehicle: saline) and 0 of 6 on day 11 (dose: 500.0 mg/kg/injection, schedule: Q04DX003 (ip), vehicle: saline).
In the case of `CN(C)N=Nc1ccc(C(N)=O)cc1`, the survivor count (dose: 400.0 mg/kg/injection, schedule: Q04DX003 (ip), vehicle: saline with Tween-80) was 2 of 6 on day 11 and 3 of 6 on day 11.
Consider `CN(C)c1ccc2c(NCCCCCCNc3ccnc4cc(N(C)C)ccc34)ccnc2c1`, for which the survivor count (dose: 300.0 mg/kg/injection, schedule: Q04DX003 (sc), vehicle: distilled water + Tween-80 + alcohol) is on record as 0 of 6 on day 11.
`Oc1c(Cl)cc(Cl)cc1C=NCCSc1ccc(Cl)cc1`: the T/C (dose: 150.0 mg/kg/injection, schedule: Q04DX003 (ip), vehicle: Klucel (hydroxypropylcellulose) (HPC)) was 145 % of control. Also, under “dose: 1200.0 mg/kg/injection, schedule: Q04DX003 (ip), vehicle: Klucel (hydroxypropylcellulose) (HPC)”, the survivor count is 0 of 6 on day 11.
With `NCCCNCCSP(=O)(O)O`, under “dose: 1600.0 mg/kg/injection, schedule: Q04DX003 (sc), vehicle: saline”, the survivor count is 0 of 6 on day 11.
For `CNC(=O)ON(C(C)=O)C(=O)NC`, the survivor count (dose: 200.0 mg/kg/injection, schedule: Q01DX010 (sc), vehicle: saline) was 0 of 3 on day 11.
As for `S=P(N1CC1)(N1CC1)N1CC1`, the survivor count is listed as 0 of 3 on day 11 (dose: 8.0 mg/kg/injection, schedule: Q01DX010 (sc), vehicle: saline); 0 of 3 on day 11 (dose: 16.0 mg/kg/injection, schedule: Q01DX010 (sc), vehicle: saline); 0 of 2 on day 11 (dose: 32.0 mg/kg/injection, schedule: Q01DX010 (sc), vehicle: saline).
`Nc1nnc[se]1`: the survivor count (dose: 800.0 mg/kg/injection, schedule: Q04DX003 (sc), vehicle: saline with Tween-80) is 1 of 6 on day 11.
Consider `Nc1nncs1`, for which the survivor count is given as 0 of 3 on day 11 (dose: 100.0 mg/kg/injection, schedule: Q01DX010 (sc), vehicle: Klucel (hydroxypropylcellulose) (HPC)); 0 of 3 on day 11 (dose: 200.0 mg/kg/injection, schedule: Q01DX010 (sc), vehicle: Klucel (hydroxypropylcellulose) (HPC)); 0 of 3 on day 11 (dose: 400.0 mg/kg/injection, schedule: Q01DX010 (sc), vehicle: Klucel (hydroxypropylcellulose) (HPC)); 0 of 3 on day 11 (dose: 800.0 mg/kg/injection, schedule: Q01DX010 (sc), vehicle: Klucel (hydroxypropylcellulose) (HPC)).
Consider `Cc1cc(NCCCCCCCNc2cc(C)nc3cc(N)ccc23)c2ccc(N)cc2n1`, for which the survivor count is, setting by setting: (dose: 50.0 mg/kg/injection, schedule: Q01DX010 (sc), vehicle: saline with Tween-80) 0 of 2 on day 11; under setting [4], 0 of 3 on day 11.
Regarding `CN(C)c1ccc(C(=C2C=CC(=[N+](C)C)C=C2)c2ccc(N(C)C)cc2)cc1` (tested in a mixture with another compound), the survivor count under setting [1] is given as 2 of 6 on day 11, the survivor count under setting [2] is reported as 2 of 6 on day 11 and the survivor count under setting [3] was 2 of 6 on day 11.
`Cc1nc(N)nc(N)c1-c1ccc(Cl)c(Cl)c1`: the survivor count is, setting by setting: (dose: 2.5 mg/kg/injection, schedule: Q01DX010 (sc), vehicle: saline) 0 of 3 on day 11; (dose: 5.0 mg/kg/injection, schedule: Q01DX010 (sc), vehicle: saline) 0 of 3 on day 11; (dose: 10.0 mg/kg/injection, schedule: Q01DX010 (sc), vehicle: saline) 0 of 3 on day 11; (dose: 20.0 mg/kg/injection, schedule: Q01DX010 (sc), vehicle: saline) 0 of 2 on day 11.
In the case of `NC(=O)/C=C/C(=O)c1c(Cl)cccc1Cl`, the survivor count (dose: 36.0 mg/kg/injection, schedule: Q04DX003 (sc), vehicle: saline with Tween-80) is 2 of 6 on day 11 and the survivor count (dose: 72.0 mg/kg/injection, schedule: Q04DX003 (sc), vehicle: saline with Tween-80) is 0 of 6 on day 11.
As to `Nc1ncnc2c(C3OC(CO)C(O)C3O)[nH]nc12` (stereo not drawn), the survivor count (dose: 300.0 mg/kg/injection, schedule: Q04DX003 (sc), vehicle: suspension in saline) was 0 of 6 on day 11 and the survivor count (dose: 600.0 mg/kg/injection, schedule: Q04DX003 (sc), vehicle: suspension in saline) is 0 of 6 on day 11.
On to `CN1CCc2c(c3ccccc3c3ccccc23)C1`, for which, where the note is “dose: 1200.0 mg/kg/injection, schedule: Q04DX003 (sc), vehicle: Klucel (hydroxypropylcellulose) (HPC)”, the survivor count is 1 of 6 on day 11.
